## Assay results

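Agonist-bound vitamin D receptor ligand-binding domain with a coregulator peptide; Texas Red fluorescence polarization tracks loss of the receptor–coactivator contact after 2 hours at room temperature.
Five-point series from about 0.09 to 57 µM.
Potency is the fitted concentration giving half of the maximal inhibition; a lower value means a stronger inhibitor.
Calls follow a score built from curve class and fitted potency, where 0 is inactive, 1–39 inconclusive and 40–100 active; every row here is inconclusive, across full, partial and single-point curves.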

Values are in µM.
Every entry below has the call inconclusive.
Only part of the assay is shown, chiefly results filed as inconclusive.
A potency from a partial, single-point or poor curve is only a rough figure.
Some entries filed as inconclusive have a full curve.
Activity scores are not listed here.

compound | tested on / at | potency (µM) | curve
O=C(Nc1ccc2ccccc2c1)c1nc(S(=O)(=O)Cc2ccccc2F)ncc1Cl | agonist-bound VDR ligand-binding domain | 39.81 | inhibitor, single point
CC(=O)Oc1oc(-c2ccccc2)nc1C=Nc1ccccc1 | agonist-bound VDR ligand-binding domain | 3.548 | inhibitor, full curve
CCOC(=O)C1=C(Cc2ccc(OC)cc2)C(=O)c2ccccc2C1=O | agonist-bound VDR ligand-binding domain | 2.239 | inhibitor, partial curve, poor fit
CCn1c2ccccc2c2nc3cc(S(=O)(=O)N4CCOCC4)ccc3nc21 | agonist-bound VDR ligand-binding domain | 0.8913 | inhibitor, full curve, poor fit
CCCS(=O)(=O)c1ncc(Cl)c(C(=O)Nc2sc3c(c2C(=O)NCC)CCCC3)n1 | agonist-bound VDR ligand-binding domain | 2.512 | inhibitor, full curve
O=C(/C=C/c1ccccc1)Nc1cccc(S(=O)(=O)Nc2ccccc2F)c1 | agonist-bound VDR ligand-binding domain | 0.8913 | inhibitor, partial curve, poor fit
Cc1ccc(C(C2=C(O)CC(C)(C)CC2=O)C2C(=O)CC(C)(C)CC2=O)s1 (stereo unspecified) | agonist-bound VDR ligand-binding domain | 3.162 | inhibitor, full curve
COC(=O)CSC1=NS(=O)(=O)c2ccccc21 | agonist-bound VDR ligand-binding domain | 3.548 | inhibitor, single point
CCOC(=O)C1=C(Cc2ccc(F)cc2)C(=O)c2ccccc2C1=O | agonist-bound VDR ligand-binding domain | 1.585 | inhibitor, full curve, poor fit
ClC(Cl)(c1nnnn1-c1ccccc1)c1nnnn1-c1ccccc1 | agonist-bound VDR ligand-binding domain | 0.631 | inhibitor, full curve, poor fit
C=CCn1c(Sc2ncc([N+](=O)[O-])s2)n[nH]c1=O | agonist-bound VDR ligand-binding domain | 3.981 | inhibitor, partial curve, poor fit
COc1ccc(/C=C2\C(=O)ON=C2c2ccccc2)cc1OC | agonist-bound VDR ligand-binding domain | 3.162 | inhibitor, single point
O=[N+]([O-])c1ccc(S(=O)(=O)c2cccc(C(F)(F)F)c2)nc1 | agonist-bound VDR ligand-binding domain | 0.7079 | inhibitor, full curve, poor fit
Cc1ccc(C(=O)c2coc3c2C(=O)C(=O)c2ccccc2-3)cc1 | agonist-bound VDR ligand-binding domain | 3.548 | inhibitor, single point
O=C1/C(=C/c2ccccn2)COc2ccccc21 | agonist-bound VDR ligand-binding domain | 19.95 | inhibitor, partial curve
CCOc1ccc(NC(=O)CC2SC(=O)N(c3ccccc3)C2=O)cc1 (stereo unspecified) | agonist-bound VDR ligand-binding domain | 31.62 | inhibitor, single point
O=C(NCc1ccc2c(c1)OCO2)c1nc(S(=O)(=O)Cc2ccccc2)ncc1Cl | agonist-bound VDR ligand-binding domain | 3.162 | inhibitor, full curve
CCSc1nc2cc(S(=O)(=O)N3CCOCC3)ccc2o1 | agonist-bound VDR ligand-binding domain | 0.7943 | inhibitor, full curve, poor fit
COc1ccc(Cl)cc1C(Nc1cccnc1)c1ccc2cccnc2c1O (stereo unspecified) | agonist-bound VDR ligand-binding domain | 4.467 | inhibitor, single point
CCCC(=O)OCCNc1cc(Sc2nc3ccccc3[nH]2)c2nonc2c1[N+](=O)[O-] | agonist-bound VDR ligand-binding domain | 3.162 | inhibitor, full curve, poor fit
COc1ccc2[nH]c3c4c(ccc3c2c1)C(=O)C=CC4=O | agonist-bound VDR ligand-binding domain | 15.85 | inhibitor, partial curve, poor fit
CN(CCO)c1cc(Sc2nc3ccccc3s2)c2nonc2c1[N+](=O)[O-] | agonist-bound VDR ligand-binding domain | 3.162 | inhibitor, full curve
COc1ccc(C(=O)/C=C/c2ccccc2F)c(OC(=O)c2ccc([N+](=O)[O-])cc2)c1 | agonist-bound VDR ligand-binding domain | 2.818 | inhibitor, full curve, poor fit
CCCOC(=O)c1c(NC(=O)C2CCCO2)sc(C(=O)OC)c1C (stereo unspecified) | agonist-bound VDR ligand-binding domain | 3.548 | inhibitor, full curve, poor fit
COc1ccc(/C=C2/C(=O)ON=C2c2ccccc2)cc1OC | agonist-bound VDR ligand-binding domain | 3.162 | inhibitor, partial curve
Cc1ccccc1/C=C/C(=O)c1ccc([N+](=O)[O-])o1 | agonist-bound VDR ligand-binding domain | 3.162 | inhibitor, full curve

Some entries from above, unchanged:

{"compound": "O=[N+]([O-])c1ccc(S(=O)(=O)c2cccc(C(F)(F)F)c2)nc1", "tested on / at": "agonist-bound VDR ligand-binding domain", "potency (µM)": "0.7079", "curve": "inhibitor, full curve, poor fit"}
{"compound": "O=C(/C=C/c1ccccc1)Nc1cccc(S(=O)(=O)Nc2ccccc2F)c1", "tested on / at": "agonist-bound VDR ligand-binding domain", "potency (µM)": "0.8913", "curve": "inhibitor, partial curve, poor fit"}
{"compound": "O=C1/C(=C/c2ccccn2)COc2ccccc21", "tested on / at": "agonist-bound VDR ligand-binding domain", "potency (µM)": "19.95", "curve": "inhibitor, partial curve"}

Data taken from PubChem BioAssay AID602201, deposited by NCATS (2012).